Source: PubChem BioAssay AID1259254 (NCATS, 2017)

Test: 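Finding genes that stop cells copying their DNA twice in one cycle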 (primary screen)
Cell system: human HCT116 colorectal cancer cells
Reagents: single siRNA against human genes
Duration: 3 days
Read-out: 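Nuclei stained with Hoechst and imaged; cell-cycle phase assigned by DNA content; G2 share scaled per plate, non-targeting siRNA 0%, GMNN siRNA 100%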
Reading the numbers: G2 robust z-score and G2 cells, % of GMNN control: higher = more G2 cells, more excess DNA replication
Call rule: 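An siRNA counts as active if its G2 robust z-score lies at least 5 MADs above the screen median; here such calls match roughly 38% of GMNN control or more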
The whole screen tested about 59,000 reagents; this is an unselected part. Over the whole deposit, about 1,550 (2.6%) were called active. 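G2 share is only a proxy for re-replication; each gene was hit by three separate siRNAs, and active genes were retested.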 Reagents against one gene are numbered here. Further read-outs or replicates are left out here. No sequences are given here. Not stated in the record: the amount of reagent.

ANP32E #1: G2 robust z-score = 0.835; G2 cells, % of GMNN control = 8.84; outcome = inactive
ANP32E #2: G2 robust z-score = -0.802; G2 cells, % of GMNN control = -2.68; outcome = inactive
ANP32E #3: G2 robust z-score = 3.05; G2 cells, % of GMNN control = 24.4; outcome = inactive
SH3BP2 #1: G2 robust z-score = -0.619; G2 cells, % of GMNN control = -1.38; outcome = inactive
SH3BP2 #2: G2 robust z-score = -0.576; G2 cells, % of GMNN control = -1.09; outcome = inactive
SH3BP2 #3: G2 robust z-score = -0.866; G2 cells, % of GMNN control = -3.13; outcome = inactive
DCBLD2 #1: G2 robust z-score = -0.411; G2 cells, % of GMNN control = 0.0779; outcome = inactive
DCBLD2 #2: G2 robust z-score = 0.768; G2 cells, % of GMNN control = 8.37; outcome = inactive
DCBLD2 #3: G2 robust z-score = 0.296; G2 cells, % of GMNN control = 5.05; outcome = inactive
PNRC2 #1: G2 robust z-score = -0.299; G2 cells, % of GMNN control = 0.861; outcome = inactive
PNRC2 #2: G2 robust z-score = -0.806; G2 cells, % of GMNN control = -2.71; outcome = inactive
PNRC2 #3: G2 robust z-score = 0.761; G2 cells, % of GMNN control = 8.32; outcome = inactive
PARP12 #1: G2 robust z-score = -0.734; G2 cells, % of GMNN control = -2.2; outcome = inactive
PARP12 #2: G2 robust z-score = -0.0558; G2 cells, % of GMNN control = 2.57; outcome = inactive
PARP12 #3: G2 robust z-score = -1.1; G2 cells, % of GMNN control = -4.79; outcome = inactive
NFXL1 #1: G2 robust z-score = 2.4; G2 cells, % of GMNN control = 19.8; outcome = inactive
NFXL1 #2: G2 robust z-score = -0.435; G2 cells, % of GMNN control = -0.0959; outcome = inactive
NFXL1 #3: G2 robust z-score = -0.747; G2 cells, % of GMNN control = -2.29; outcome = inactive
GDA #1: G2 robust z-score = 0.0752; G2 cells, % of GMNN control = 3.5; outcome = inactive
GDA #2: G2 robust z-score = 0.325; G2 cells, % of GMNN control = 5.25; outcome = inactive
GDA #3: G2 robust z-score = -0.118; G2 cells, % of GMNN control = 2.14; outcome = inactive
SLC52A1 #1: G2 robust z-score = 0.462; G2 cells, % of GMNN control = 6.22; outcome = inactive
SLC52A1 #2: G2 robust z-score = 4.16; G2 cells, % of GMNN control = 32.2; outcome = inactive
SLC52A1 #3: G2 robust z-score = -0.272; G2 cells, % of GMNN control = 1.06; outcome = inactive

A few values from the list.
For “G2 robust z-score”, DCBLD2 #3 is entered as 0.296
For “outcome”, ANP32E #2 shows inactive
